Some of these results come from one statement about several compounds together. For at least one compound, name, drawing or mass did not settle the structure.
Experiments:
[1] = tested on: E. coli C7 LPS heptosylation; test: Inhibition of E. coli C7 (018:K1:H7) LPS biosynthesis (LPS gel electrophoresis); format: cell-based; settings: at concentrations <10 mM
[2] = biological target: HldE of E. coli (HldE-K) (Escherichia coli, UniProt P76658); test: Inhibition of the enzymatic activity of HldE-K (luminescent assay on kinase activity); format: biochemical
Experimental: Inhibition of the Enzymatic Activity of HldE-K (Luminescent Assay On Kinase Activity):
The assay buffer “AB” contained 50 mM Hepes pH7.5, 1 mM MnCl2, 25 mM KCl, 0.012% Triton-X100 and 1 mM dithiothreitol (DTT) and 0.1 μM Myelin basic protein (MBP). The following components were added in a white polystyrene Costar plate up to a final volume of 30 μL: 10 μL inhibitor dissolved in DMSO/water 50/50, and 20 μL HldE of E. coli in AB. After 30 min of pre-incubation at room temperature, 30 μL of Substrates mix in AB were added in each well to a final volume of 60 μL. This reaction mixture was then composed of 3 nM HldE, 0.2 μM β-heptose-7-phosphate (custom synthesis) and 0.2 μM ATP (Sigma) in assay buffer. After 30 min of incubation at room temperature, 200 μL of the revelation mix were added to a final volume of 260 µL, including the following constituents at the respective final concentrations: 5000 light units/ml luciferase (Sigma), 30 μM D-luciferin (Sigma), 100 μM N-acetylcysteamine (Aldrich). Luminescence intensity was immediately measured on Luminoskan (Thermofischer) and converted into inhibition percentages. For IC50 determinations, the inhibitor was tested at 6 to 10 different concentrations, and the related inhibitions were fitted to a classical Langmuir equilibrium model using XLFIT (IDBS).

By UniProt entry, the sequences of proteins in these tests, tags left out. Where a name states a change or a piece, a line headed by the entry shows the natural chain unless it says otherwise.
UniProt P76658: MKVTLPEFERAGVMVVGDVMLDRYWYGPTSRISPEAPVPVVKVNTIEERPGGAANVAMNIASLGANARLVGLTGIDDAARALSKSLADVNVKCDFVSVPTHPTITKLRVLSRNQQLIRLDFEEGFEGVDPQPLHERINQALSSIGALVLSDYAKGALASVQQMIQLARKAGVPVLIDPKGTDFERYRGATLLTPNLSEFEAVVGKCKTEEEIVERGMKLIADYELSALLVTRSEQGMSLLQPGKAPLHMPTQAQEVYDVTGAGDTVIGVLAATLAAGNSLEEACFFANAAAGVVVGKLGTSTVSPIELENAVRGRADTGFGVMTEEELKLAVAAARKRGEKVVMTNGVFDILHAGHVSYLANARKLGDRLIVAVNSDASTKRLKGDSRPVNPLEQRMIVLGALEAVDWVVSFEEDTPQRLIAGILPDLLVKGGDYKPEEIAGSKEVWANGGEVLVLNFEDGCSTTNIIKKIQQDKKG
UniProt P63224, whole entry: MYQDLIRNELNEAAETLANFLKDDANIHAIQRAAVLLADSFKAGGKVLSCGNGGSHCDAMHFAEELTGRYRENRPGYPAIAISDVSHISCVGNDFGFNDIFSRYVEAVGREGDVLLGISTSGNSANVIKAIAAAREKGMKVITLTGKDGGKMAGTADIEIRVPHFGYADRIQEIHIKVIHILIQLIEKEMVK

[3] = biological target: GmhA of E. coli (Escherichia coli, UniProt P63224); test: Inhibition of the enzymatic activity of GmhA (luminescent assay); format: biochemical
Experimental: Inhibition of the Enzymatic Activity of GmhA (Luminescent Assay):
The assay buffer “AB” contained 50 mM Hepes pH7.5, 1 mM MnCl2, 25 mM KCl, 0.012% Triton-X100 and 1 mM dithiothreitol (DTT) and 0.1 μM Myelin basic protein (MBP). The following components were added in a white polystyrene Costar plate up to a final volume of 30 μL: 10 μL inhibitor dissolved in DMSO/water 50/50, and 20 μL GmhA of E. coli in AB. After 30 min of pre-incubation at room temperature, 30 μL of Substrates mix in AB were added in each well to a final volume of 60 μL. This reaction mixture was then composed of 2 nM GmhA, 3 μM sedoheptulose-7-phosphate (Sigma), 3 μM ATP (Sigma) and 50 nM HldE of E. coli in assay buffer. After 30 min of incubation at room temperature, 100 μL of the revelation mix were added to a final volume of 160 μL, including the following constituents at the respective final concentrations: 10000 light units/ml luciferase (Sigma), 20 μM D-luciferin (Sigma), 100 μM N-acetylcysteamine (Aldrich). Luminescence intensity was immediately measured on Luminoskan (Thermofischer) and converted into inhibition percentages. For IC50 determinations, the inhibitor was tested at 6 to 10 different concentrations, and the related inhibitions were fitted to a classical langmuir equilibrium model using XLFIT (IDBS).

In the case of `O=P(O)(O)OC[C@@H](O)[C@H]1O[C@H](F)[C@@H](O)[C@@H](O)[C@@H]1O` [Example 6, α-Fluoro 7-O-phosphoryl-D-glycero-α-D-manno-heptopyranoside], the “inhibition of E. coli C7 LPS heptosylation” value (“inhibition” below) ([1]; in the presence of 100 μM G6P) is reported as “at least 30%”.

In the case of `O=P(O)(O)OC[C@@H](O)[C@H]1OC[C@@H](O)[C@@H](O)[C@@H]1O` [Example 7, 7-O-phosphoryl-1-deoxy-D-glycero-D-manno-heptopyranoside], the IC50 [2] is reported as under 100 µM, the IC50 [3] is reported as under 100 µM and the “inhibition” value ([1]; in the presence of 100 μM G6P) is reported as “at least 30%”.

`OC[C@@H](O)[C@H]1OC[C@@H](O)[C@@H](O)[C@@H]1O` [Example 10, 1-Deoxy-D-glycero-D-manno-heptopyranose] was tested, and the “inhibition” value ([1]; without G6P) was “at least 30%”.

In the case of `O=P(O)(O)OC[C@@H](O)[C@H]1O[C@@](O)(CO)[C@@H](O)[C@@H](O)[C@@H]1O` [Example 13, 1-C-Hydroxymethylene 7-O-phosphoryl-D-glycero-D-manno-heptopyranose], the “inhibition” value ([1]; in the presence of 100 μM G6P) is reported as “at least 30%”.
